Values quoted from earlier work, collected in publication PMC5111108, “An insecticide resistance-breaking mosquitocide targeting inward rectifier potassium channels in vectors of Zika virus and malaria” (Scientific Reports, 2016).

Test system: An. gambiae Akron strain
Conditions: topical; cited from earlier work

CC1(C)C(C=C(Cl)Cl)C1C(=O)OCc1cccc(Oc2ccccc2)c1 (stereo not shown) [Permethrin]
Resistance Ratio (ED50 Akron/ED50 G3): 33
